# Publication PMC9682758
# Sequences of proteins named here, by UniProt entry; tags and fusion partners are left off.
# UniProt Q9CPN8: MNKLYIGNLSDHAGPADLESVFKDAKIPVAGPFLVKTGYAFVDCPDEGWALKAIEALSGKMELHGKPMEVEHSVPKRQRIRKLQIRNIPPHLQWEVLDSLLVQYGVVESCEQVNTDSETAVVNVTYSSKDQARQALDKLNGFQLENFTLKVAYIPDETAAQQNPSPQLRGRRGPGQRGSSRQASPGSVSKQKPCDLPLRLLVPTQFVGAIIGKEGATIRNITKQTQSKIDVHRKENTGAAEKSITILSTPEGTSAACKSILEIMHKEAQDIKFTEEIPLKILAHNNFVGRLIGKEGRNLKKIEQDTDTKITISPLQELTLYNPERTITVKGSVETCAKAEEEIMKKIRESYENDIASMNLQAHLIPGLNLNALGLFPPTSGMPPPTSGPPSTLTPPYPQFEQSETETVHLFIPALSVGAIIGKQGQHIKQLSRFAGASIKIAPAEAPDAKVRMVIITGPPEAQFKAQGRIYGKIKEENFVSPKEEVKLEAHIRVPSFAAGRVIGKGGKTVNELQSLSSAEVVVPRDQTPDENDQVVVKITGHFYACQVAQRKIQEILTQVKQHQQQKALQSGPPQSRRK
# UniProt O88477: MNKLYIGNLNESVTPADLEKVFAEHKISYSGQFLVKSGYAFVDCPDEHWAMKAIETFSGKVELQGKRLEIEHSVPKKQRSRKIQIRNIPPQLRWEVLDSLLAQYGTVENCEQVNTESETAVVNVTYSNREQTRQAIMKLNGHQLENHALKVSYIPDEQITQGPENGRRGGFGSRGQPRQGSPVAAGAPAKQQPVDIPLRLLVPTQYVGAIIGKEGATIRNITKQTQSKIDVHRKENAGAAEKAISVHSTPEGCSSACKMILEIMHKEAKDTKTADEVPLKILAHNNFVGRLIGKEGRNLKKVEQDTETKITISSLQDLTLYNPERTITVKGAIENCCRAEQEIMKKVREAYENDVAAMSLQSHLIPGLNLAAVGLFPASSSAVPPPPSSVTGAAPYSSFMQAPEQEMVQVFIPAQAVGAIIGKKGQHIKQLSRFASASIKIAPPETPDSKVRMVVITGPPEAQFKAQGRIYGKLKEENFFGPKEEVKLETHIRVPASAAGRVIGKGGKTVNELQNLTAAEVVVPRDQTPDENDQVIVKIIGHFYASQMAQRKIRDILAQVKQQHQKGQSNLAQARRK
# UniProt Q5SF07: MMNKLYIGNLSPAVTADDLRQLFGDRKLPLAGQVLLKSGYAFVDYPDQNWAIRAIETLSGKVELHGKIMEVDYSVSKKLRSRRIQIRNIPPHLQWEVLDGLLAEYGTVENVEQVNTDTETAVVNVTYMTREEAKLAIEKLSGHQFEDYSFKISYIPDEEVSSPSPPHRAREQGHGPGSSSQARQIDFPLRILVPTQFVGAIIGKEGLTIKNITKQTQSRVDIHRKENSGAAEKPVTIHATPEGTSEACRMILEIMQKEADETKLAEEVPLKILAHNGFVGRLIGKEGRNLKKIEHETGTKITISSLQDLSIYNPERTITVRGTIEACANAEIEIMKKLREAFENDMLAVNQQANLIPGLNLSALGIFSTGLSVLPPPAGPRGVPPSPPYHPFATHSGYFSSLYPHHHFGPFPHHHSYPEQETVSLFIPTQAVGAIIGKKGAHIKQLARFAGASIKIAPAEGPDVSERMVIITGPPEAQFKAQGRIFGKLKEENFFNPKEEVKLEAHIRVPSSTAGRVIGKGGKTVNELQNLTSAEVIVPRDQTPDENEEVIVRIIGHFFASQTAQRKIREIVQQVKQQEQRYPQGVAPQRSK
# No constants are given. Whether binding was seen depends on the method and setting. Binding seen in cells or lysates may run through a third protein. Some results given as binding are weak or reduced against the parent protein; the word gives no strength.
# Biological target: IGF2BP3 (mouse (endogenous in TM4)) (UniProt Q9CPN8)
# Experiment: co-IP; cells lysed, lysate incubated with primary antibody at 4 °C overnight, Protein A + G beads 1 h at room temperature, washed with 1× TBS, eluted for SDS-PAGE (Beyotime kit P2179S)
row,binding,Substance
1,binds,IGF2BP1 (from UniProt O88477 1-577)
2,binds,IGF2BP2 (from UniProt Q5SF07 1-592)
